Results from patent publication US8901082B2, “Immunity-inducing agent and method for detection of cancer” (Toray Industries, Inc., priority 2008, dated 2014).

B1: egg white albumin: positive control immobilized on the solid phase at 50 μg/ml (protein)
chain: GSIGAASMEFCFDVFKELKVHHANENIFYCPIAIMSALAMVYLGAKDSTRTQINKVVRFDKLPGFGDSIEAQCGTSVNVHSSLRDILNQITKPNDVYSFSLASRLYAEERYPILPEYLQCVKELYRGGLEPINFQTAADQARELINSWVESQTNGIIRNVLQPSSVDSQTAMVLVNAIVFKGLWEKAFKDEDTQAMPFRVTEQESKPVQMMYQIGLFRVASMASEKMKILELPFASGTMSMLVLLPDEVSGLEQLESIINFEKLTEWTSSNVMEERKIKVYLPRMKMEEKYNLTSVLMAMGITDVFSSSANLSGISSAESLKISQAVHAAHAEINEAGREVVGSAEAGVDAASVSEEFRADHPFLFCIKHIATNAVLFFGRCVSP
B2: human-derived cancer antigen protein: recombinant human CD179b protein, the amino acid sequence shown in SEQ ID NO:3 (protein, listed as Homo sapiens)
chain: LLRPTAASQSRALGPGAPGGSSRSSLRSRWGRFLLQRGSWTGPRCWPRGFQSKHNSVTHVFGSGTQLTVLSQPKATPSVTLFPPSSEELQANKATLVCLMNDFYPGILTVTWKADGTPITQGVEMTTPSKQSNNKYAASSYLSLTPEQWRSRRSYSCQVMHEGSTVEKTVAPAECS

Tested on: IgG antibody in serum
Assay: Detection of human cancer: ELISA of serum IgG reacting with the immobilized polypeptide
Format: binding
Conditions: average

Molecule | absorbance at 450 nm (healthy individuals) | absorbance at 450 nm (17 malignant breast cancer patients)
B1 | 0.45 | 
B2 | 0 | 0.28
